These are yes or no findings as the source states them, for the method shown. In cells and extracts the contact can be indirect. A result given as binding can be weak or reduced; the word gives no strength. Where a sequence is shown, tags or fusion partners need not be part of it.

One assay has as its target T1, CMTM7-myc (human) (UniProt Q96FZ5).
T1 sequence: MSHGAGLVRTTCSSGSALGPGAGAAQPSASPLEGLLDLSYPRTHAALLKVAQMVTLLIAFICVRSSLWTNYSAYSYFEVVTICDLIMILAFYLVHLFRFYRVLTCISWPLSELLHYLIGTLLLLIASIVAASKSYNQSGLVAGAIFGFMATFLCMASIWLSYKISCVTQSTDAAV
Kind of assay: co-IP; anti-myc antibody and protein-G Sepharose; lysates of control and CMTM7-myc-overexpressing HeLa cells, lysed 48 h after transfection; 20 mM Tris-HCl pH 8.0, 150 mM NaCl, 2 mM EDTA, 10% glycerol, 0.5% Nonidet P-40, 4 °C; Western blot. A general note: Immunoblotting shows a protein as a band on a membrane.

Assay [1] has as its target Rab5 (human (endogenous in HeLa)). Kind of assay: co-IP; anti-Rab5 antibody and protein-G Sepharose; lysates of control and CMTM7-myc-overexpressing HeLa cells, lysed 48 h after transfection; 20 mM Tris-HCl pH 8.0, 150 mM NaCl, 2 mM EDTA, 10% glycerol, 0.5% Nonidet P-40, 4 °C; Western blot.

Regarding Rab5 (human (endogenous in HeLa)), the binding result with CMTM7-myc (human) is reported as “binds”.

B1: CMTM7-myc (protein, UniProt Q96FZ5 1-175)
chain: T1 sequence
With B1, the binding result in assay [1] is reported as “binds”.

Values taken from article PMC8287682.
